This is one part of the list.
What was measured:
Assay in all cases: glycan array binding signal (z-score within array); higher = stronger binding
Details in all cases: glycan notation: IUPAC condensed, linker removed
[1] = target: Fuc(a1-2)Gal(b1-4)[Fuc(a1-3)]GlcNAc
Method in brief: (§1)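 Negative Z-scores can be read as non-binding. The Z-score is calculated within each array and then averaged across arrays of one protein sequence at different concentrations or buffers and across linkers. Arrays, 3228 in all, were curated from the Consortium for Functional Glycomics database and kept only where the protein sequence was available.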

[2] = target: Fuc(a1-2)Gal(b1-4)[Fuc(a1-3)]GlcNAc(b1-2)Man(a1-3)[Fuc(a1-2)Gal(b1-4)[Fuc(a1-3)]GlcNAc(b1-2)Man(a1-6)]Man(b1-4)GlcNAc(b1-4)[Fuc(a1-6)]GlcNAc
Method in brief: as §1

[3] = target: Fuc(a1-2)Gal(b1-4)[Fuc(a1-3)]GlcNAc(b1-2)[Fuc(a1-2)Gal(b1-4)[Fuc(a1-3)]GlcNAc(b1-4)]Man(a1-3)[Fuc(a1-2)Gal(b1-4)[Fuc(a1-3)]GlcNAc(b1-2)Man(a1-6)]Man(b1-4)GlcNAc(b1-4)GlcNAc
Method in brief: as §1

[4] = target: Fuc(a1-2)Gal(b1-4)[Fuc(a1-3)]GlcNAc(b1-3)Gal(b1-4)[Fuc(a1-3)]GlcNAc
Method in brief: as §1

[5] = target: Fuc(a1-2)Gal(b1-4)[Fuc(a1-3)]GlcNAc(b1-3)Gal(b1-4)[Fuc(a1-3)]GlcNAc(b1-3)Gal(b1-4)[Fuc(a1-3)]GlcNAc
Method in brief: as §1

[6] = target: Fuc(a1-2)Gal(b1-4)[Fuc(a1-3)]GlcNAc(b1-3)GalNAc
Method in brief: as §1

[7] = target: Fuc(a1-2)Gal(b1-4)[Fuc(a1-3)]GlcNAc(b1-3)[Neu5Ac(a2-6)Gal(b1-4)GlcNAc(b1-6)]Gal(b1-4)Glc
Method in brief: as §1

[8] = target: Fuc(a1-2)Gal3S(b1-4)GlcNAc
Method in brief: as §1

[9] = target: Fuc(a1-2)Gal6S(b1-3)GlcNAc
Method in brief: as §1

[10] = target: Fuc(a1-2)Gal6S(b1-3)GlcNAc6S
Method in brief: as §1

[11] = target: Fuc(a1-2)Gal6S(b1-4)Glc
Method in brief: as §1

[12] = target: Fuc(a1-2)Gal6S(b1-4)Glc6S
Method in brief: as §1

[13] = target: Fuc(a1-2)[Gal(a1-3)]Gal
Method in brief: as §1

[14] = target: Fuc(a1-2)[Gal(a1-3)]Gal(b1-3)GalNAc
Method in brief: as §1

[15] = target: Fuc(a1-2)[Gal(a1-3)]Gal(b1-3)GalNAc(b1-3)Gal(a1-4)Gal(b1-4)Glc
Method in brief: as §1

[16] = target: Fuc(a1-2)[Gal(a1-3)]Gal(b1-3)GlcNAc
Method in brief: as §1

[17] = target: Fuc(a1-2)[Gal(a1-3)]Gal(b1-3)GlcNAc(b1-2)Man(a1-3)[Fuc(a1-2)[Gal(a1-3)]Gal(b1-3)GlcNAc(b1-2)Man(a1-6)]Man(b1-4)GlcNAc(b1-4)GlcNAc
Method in brief: as §1

[18] = target: Fuc(a1-2)[Gal(a1-3)]Gal(b1-3)GlcNAc(b1-2)Man(a1-3)[Fuc(a1-2)[Gal(a1-3)]Gal(b1-3)GlcNAc(b1-2)Man(a1-6)]Man(b1-4)GlcNAc(b1-4)[Fuc(a1-6)]GlcNAc
Method in brief: as §1

[19] = target: Fuc(a1-2)[Gal(a1-3)]Gal(b1-3)GlcNAc(b1-3)GalNAc
Method in brief: as §1

[20] = target: Fuc(a1-2)[Gal(a1-3)]Gal(b1-3)GlcNAc(b1-6)GalNAc
Method in brief: as §1

[21] = target: Fuc(a1-2)[Gal(a1-3)]Gal(b1-4)Glc
Method in brief: as §1

[22] = target: Fuc(a1-2)[Gal(a1-3)]Gal(b1-4)GlcNAc
Method in brief: as §1

[23] = target: Fuc(a1-2)[Gal(a1-3)]Gal(b1-4)GlcNAc(b1-2)Man
Method in brief: as §1

[24] = target: Fuc(a1-2)[Gal(a1-3)]Gal(b1-4)GlcNAc(b1-2)Man(a1-3)[Fuc(a1-2)[Gal(a1-3)]Gal(b1-4)GlcNAc(b1-2)Man(a1-6)]Man(b1-4)GlcNAc(b1-4)GlcNAc
Method in brief: as §1

[25] = target: Fuc(a1-2)[Gal(a1-3)]Gal(b1-4)GlcNAc(b1-2)Man(a1-3)[Fuc(a1-2)[Gal(a1-3)]Gal(b1-4)GlcNAc(b1-2)Man(a1-6)]Man(b1-4)GlcNAc(b1-4)[Fuc(a1-6)]GlcNAc
Method in brief: as §1

[26] = target: Fuc(a1-2)[Gal(a1-3)]Gal(b1-4)GlcNAc(b1-3)GalNAc
Method in brief: as §1

[27] = target: Fuc(a1-2)[Gal(a1-3)]Gal(b1-4)GlcNAc(b1-3)[Fuc(a1-2)[Gal(a1-3)]Gal(b1-4)GlcNAc(b1-6)]GalNAc
Method in brief: as §1

[28] = target: Fuc(a1-2)[Gal(a1-3)]Gal(b1-4)GlcNAc(b1-6)GalNAc
Method in brief: as §1

[29] = target: Fuc(a1-2)[Gal(a1-3)]Gal(b1-4)[Fuc(a1-3)]Glc
Method in brief: as §1

[30] = target: Fuc(a1-2)[Gal(a1-3)]Gal(b1-4)[Fuc(a1-3)]GlcNAc
Method in brief: as §1

[31] = target: Fuc(a1-2)[Gal(a1-3)]Gal(b1-4)[Fuc(a1-3)]GlcNAc(b1-3)GalNAc
Method in brief: as §1

[32] = target: Fuc(a1-2)[Gal(a1-4)]Gal(b1-4)GlcNAc
Method in brief: as §1

[33] = target: Fuc(a1-2)[GalNAc(a1-3)]Gal
Method in brief: as §1

[34] = target: Fuc(a1-2)[GalNAc(a1-3)]Gal(b1-3)GalNAc(a1-3)[Fuc(a1-2)]Gal(b1-4)GlcNAc
Method in brief: as §1

[35] = target: Fuc(a1-2)[GalNAc(a1-3)]Gal(b1-3)GalNAc(b1-3)Gal(a1-4)Gal(b1-4)Glc
Method in brief: as §1

[36] = target: Fuc(a1-2)[GalNAc(a1-3)]Gal(b1-3)GlcNAc
Method in brief: as §1

[37] = target: Fuc(a1-2)[GalNAc(a1-3)]Gal(b1-3)GlcNAc(b1-2)Man(a1-3)[Fuc(a1-2)[GalNAc(a1-3)]Gal(b1-3)GlcNAc(b1-2)Man(a1-6)]Man(b1-4)GlcNAc(b1-4)GlcNAc
Method in brief: as §1

[38] = target: Fuc(a1-2)[GalNAc(a1-3)]Gal(b1-3)GlcNAc(b1-2)Man(a1-3)[Fuc(a1-2)[GalNAc(a1-3)]Gal(b1-3)GlcNAc(b1-2)Man(a1-6)]Man(b1-4)GlcNAc(b1-4)[Fuc(a1-6)]GlcNAc
Method in brief: as §1

B1: SabA (Helicobacter pylori) (protein)
chain: MGSSHHHHHHSSGLVPRGSHMENLYFQGEDNGFFVSAGYQIGEAVQMVKNTGELKNLNEKYEQLSQYLNQVASLKQSIQNANNIELVNSSLNYLKSFTNNNYNSTTQSPIFNAVQAVITSVLGFWSLYAGNYFTFFVGKKVGDSGQPASVQGNPPFKTIIENCSGIENCAMDQTTYDKMKKLAEDLQAAQTNSATKGNNLCALSGCAATDSTSNPPNSTVSNALNLAQQLMDLIANTKTAMMWKNIVISGVSNTSGAITSTNYPTQYAVFNNIKAMIPILQQAVTLSQSNHTLSASLQAQATGSQTNPKFAKDIYTFAQNQKQVISYAQDIFNLFNSIPAEQYKYLEKAYLKIPNAGSTPTNPYRQVVNLNQEVQTIKNNVSYYGNRVDAALSVARDVYNLKSNQAEIVTAYNDAKTLSEEISKLPHNQVNTKDIVTLPYDKNAPAAGQSNYQINPEQQSNLNQALAAMSNNPFKKVGMISSQNNNGA
glycan array binding signal (z-score) [1]: -0.472
glycan array binding signal (z-score) [2]: -0.199
glycan array binding signal (z-score) [3]: 0.216
glycan array binding signal (z-score) [4]: -0.91
glycan array binding signal (z-score) [5]: -0.728
glycan array binding signal (z-score) [6]: 2.43
glycan array binding signal (z-score) [7]: -0.245
glycan array binding signal (z-score) [8]: -0.692
glycan array binding signal (z-score) [9]: -0.748
glycan array binding signal (z-score) [10]: 3.74
glycan array binding signal (z-score) [11]: 0.534
glycan array binding signal (z-score) [12]: 0.738
glycan array binding signal (z-score) [13]: -0.033
glycan array binding signal (z-score) [14]: 0.111
glycan array binding signal (z-score) [15]: 0.168
glycan array binding signal (z-score) [16]: -0.4
glycan array binding signal (z-score) [17]: 0.056
glycan array binding signal (z-score) [18]: 1.23
glycan array binding signal (z-score) [19]: -0.109
glycan array binding signal (z-score) [20]: 0.249
glycan array binding signal (z-score) [21]: 0.498
glycan array binding signal (z-score) [22]: -0.42
glycan array binding signal (z-score) [23]: -0.411
glycan array binding signal (z-score) [24]: -0.026
glycan array binding signal (z-score) [25]: 1.37
glycan array binding signal (z-score) [26]: -0.376
glycan array binding signal (z-score) [27]: 2.78
glycan array binding signal (z-score) [28]: -0.065
glycan array binding signal (z-score) [29]: -0.48
glycan array binding signal (z-score) [30]: -0.058
glycan array binding signal (z-score) [31]: 0.348
glycan array binding signal (z-score) [32]: -0.526
glycan array binding signal (z-score) [33]: 0.183
glycan array binding signal (z-score) [34]: -0.73
glycan array binding signal (z-score) [35]: 0.24
glycan array binding signal (z-score) [36]: 0.031
glycan array binding signal (z-score) [37]: -0.485
glycan array binding signal (z-score) [38]: 0.437
